The other results are listed elsewhere or left out.
Tests used:
Experiment in all cases: log2 fold change, soluble protein after heating vs DMSO (PISA); higher = thermal stabilisation; K562 cells, 10 uM, 30 min; active = over 0.2 and 3.5 SD of the protein, either way, in both replicates (recomputed)
[1] = compound: CS(=O)(=O)c1ccc(-c2cnc(N)c(C(=O)Nc3ccccc3)n2)cc1
Procedure, shortened: (§1)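 K562 cells at 2×10^6 cells/mL were exposed to 10 μM compound for 30 min, then aliquots were heated for 3 min across 48°C-58°C, pooled, and extracted in PBS containing 0.5% NP-40 at 4°C. The supernatant after 21,000xg for 90 min was taken as soluble protein and measured by TMTpro 16plex LC-MS/MS with channel sums equalised. Thermal stability is reported relative to control samples, with values from duplicates. Fold changes are given on a log2 scale.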

By UniProt entry, the sequences of proteins in these tests, tags left out. Where a name states a change or a piece, a line headed by the entry shows the natural chain unless it says otherwise.
UniProt Q5R3I4: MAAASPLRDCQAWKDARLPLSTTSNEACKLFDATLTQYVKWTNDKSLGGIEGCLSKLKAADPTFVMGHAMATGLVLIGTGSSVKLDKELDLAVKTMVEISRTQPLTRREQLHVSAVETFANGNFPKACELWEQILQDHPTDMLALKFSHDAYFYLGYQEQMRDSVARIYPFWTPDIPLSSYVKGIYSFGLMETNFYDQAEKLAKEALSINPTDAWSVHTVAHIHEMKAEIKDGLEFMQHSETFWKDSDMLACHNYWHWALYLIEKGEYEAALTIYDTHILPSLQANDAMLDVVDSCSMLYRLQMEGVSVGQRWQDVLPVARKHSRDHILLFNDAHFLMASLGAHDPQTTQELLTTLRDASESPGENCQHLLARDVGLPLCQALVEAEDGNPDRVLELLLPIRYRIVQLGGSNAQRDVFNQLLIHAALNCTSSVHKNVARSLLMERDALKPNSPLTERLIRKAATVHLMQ
UniProt O43396: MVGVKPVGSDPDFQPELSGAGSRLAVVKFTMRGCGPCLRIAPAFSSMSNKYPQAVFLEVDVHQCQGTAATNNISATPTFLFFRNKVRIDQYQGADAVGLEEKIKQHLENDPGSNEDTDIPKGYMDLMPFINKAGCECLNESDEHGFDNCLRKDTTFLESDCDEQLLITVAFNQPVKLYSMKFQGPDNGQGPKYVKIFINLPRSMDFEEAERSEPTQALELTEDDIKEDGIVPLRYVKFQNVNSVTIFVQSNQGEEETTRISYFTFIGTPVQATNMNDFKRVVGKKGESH
UniProt Q01081: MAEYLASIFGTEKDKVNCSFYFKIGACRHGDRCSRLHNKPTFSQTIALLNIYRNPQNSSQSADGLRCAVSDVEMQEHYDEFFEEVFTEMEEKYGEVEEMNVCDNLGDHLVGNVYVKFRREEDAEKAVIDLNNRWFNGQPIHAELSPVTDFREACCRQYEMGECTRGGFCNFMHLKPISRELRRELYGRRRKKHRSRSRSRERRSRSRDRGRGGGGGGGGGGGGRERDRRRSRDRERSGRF
UniProt Q99757: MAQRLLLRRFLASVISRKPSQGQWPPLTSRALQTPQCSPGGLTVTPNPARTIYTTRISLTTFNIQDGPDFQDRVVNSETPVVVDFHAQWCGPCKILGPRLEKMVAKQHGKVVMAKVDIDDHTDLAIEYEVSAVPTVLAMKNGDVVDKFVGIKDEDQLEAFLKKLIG
UniProt Q969T4: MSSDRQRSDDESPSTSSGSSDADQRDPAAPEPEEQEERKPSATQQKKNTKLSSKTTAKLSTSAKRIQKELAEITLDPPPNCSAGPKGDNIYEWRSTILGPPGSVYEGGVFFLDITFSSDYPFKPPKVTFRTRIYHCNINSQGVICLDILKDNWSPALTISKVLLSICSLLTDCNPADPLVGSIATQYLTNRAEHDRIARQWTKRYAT
UniProt Q5VYS8: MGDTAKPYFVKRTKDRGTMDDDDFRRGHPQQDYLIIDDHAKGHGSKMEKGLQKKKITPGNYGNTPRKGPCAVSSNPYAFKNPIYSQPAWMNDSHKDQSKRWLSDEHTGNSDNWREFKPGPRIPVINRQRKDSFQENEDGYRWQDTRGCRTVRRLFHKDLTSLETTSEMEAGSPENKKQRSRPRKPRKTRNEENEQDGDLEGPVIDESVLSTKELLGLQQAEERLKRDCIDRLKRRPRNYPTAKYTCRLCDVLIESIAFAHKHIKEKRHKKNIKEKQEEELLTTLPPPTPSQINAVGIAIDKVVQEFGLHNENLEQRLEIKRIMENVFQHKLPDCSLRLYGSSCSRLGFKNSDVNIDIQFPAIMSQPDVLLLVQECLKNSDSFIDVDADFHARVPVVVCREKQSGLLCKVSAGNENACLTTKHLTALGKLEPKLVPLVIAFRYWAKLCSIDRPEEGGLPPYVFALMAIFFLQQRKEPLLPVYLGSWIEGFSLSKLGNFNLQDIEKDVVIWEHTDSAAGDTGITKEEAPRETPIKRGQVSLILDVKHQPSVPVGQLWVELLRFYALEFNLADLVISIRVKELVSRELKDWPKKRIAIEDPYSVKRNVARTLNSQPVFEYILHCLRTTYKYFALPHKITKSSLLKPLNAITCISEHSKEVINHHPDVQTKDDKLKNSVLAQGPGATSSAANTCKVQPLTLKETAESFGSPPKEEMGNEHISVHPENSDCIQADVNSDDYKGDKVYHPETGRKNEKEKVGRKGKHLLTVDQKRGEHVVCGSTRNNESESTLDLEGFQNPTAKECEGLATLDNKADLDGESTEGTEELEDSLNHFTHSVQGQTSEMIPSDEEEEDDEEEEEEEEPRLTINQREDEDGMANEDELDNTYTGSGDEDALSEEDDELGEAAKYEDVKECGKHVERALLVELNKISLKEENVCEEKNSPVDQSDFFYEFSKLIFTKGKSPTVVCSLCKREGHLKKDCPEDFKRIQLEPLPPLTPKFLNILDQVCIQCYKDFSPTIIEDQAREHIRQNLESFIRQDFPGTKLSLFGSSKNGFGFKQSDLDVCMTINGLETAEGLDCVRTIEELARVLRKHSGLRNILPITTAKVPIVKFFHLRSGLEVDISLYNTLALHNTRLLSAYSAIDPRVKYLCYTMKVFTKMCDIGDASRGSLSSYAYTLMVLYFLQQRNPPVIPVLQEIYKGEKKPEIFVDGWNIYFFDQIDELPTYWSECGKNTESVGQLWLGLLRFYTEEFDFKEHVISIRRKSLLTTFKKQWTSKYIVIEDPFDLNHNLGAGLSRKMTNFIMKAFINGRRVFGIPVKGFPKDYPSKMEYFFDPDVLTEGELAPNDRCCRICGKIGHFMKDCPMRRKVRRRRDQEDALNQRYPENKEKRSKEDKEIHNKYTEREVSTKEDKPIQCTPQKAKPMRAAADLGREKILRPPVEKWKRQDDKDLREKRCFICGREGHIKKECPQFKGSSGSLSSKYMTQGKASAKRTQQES
UniProt P0CG48, whole entry, looked up: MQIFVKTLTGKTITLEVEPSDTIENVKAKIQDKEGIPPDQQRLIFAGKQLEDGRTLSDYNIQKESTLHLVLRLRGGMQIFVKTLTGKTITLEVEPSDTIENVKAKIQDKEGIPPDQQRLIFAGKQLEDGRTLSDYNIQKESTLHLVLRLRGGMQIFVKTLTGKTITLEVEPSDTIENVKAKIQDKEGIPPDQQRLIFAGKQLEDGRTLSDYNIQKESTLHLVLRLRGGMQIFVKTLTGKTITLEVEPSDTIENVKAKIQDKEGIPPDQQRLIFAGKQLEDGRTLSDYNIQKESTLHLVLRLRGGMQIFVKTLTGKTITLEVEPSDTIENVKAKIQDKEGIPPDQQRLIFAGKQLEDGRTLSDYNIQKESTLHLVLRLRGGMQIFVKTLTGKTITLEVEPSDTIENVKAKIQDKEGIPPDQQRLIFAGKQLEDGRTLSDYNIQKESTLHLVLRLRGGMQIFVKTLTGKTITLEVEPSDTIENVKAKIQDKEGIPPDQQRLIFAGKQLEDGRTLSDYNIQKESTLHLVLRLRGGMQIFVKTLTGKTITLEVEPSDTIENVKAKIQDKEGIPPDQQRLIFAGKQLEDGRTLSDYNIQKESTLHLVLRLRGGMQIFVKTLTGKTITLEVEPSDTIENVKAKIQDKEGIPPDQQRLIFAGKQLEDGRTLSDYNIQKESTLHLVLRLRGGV
UniProt Q7Z3V4: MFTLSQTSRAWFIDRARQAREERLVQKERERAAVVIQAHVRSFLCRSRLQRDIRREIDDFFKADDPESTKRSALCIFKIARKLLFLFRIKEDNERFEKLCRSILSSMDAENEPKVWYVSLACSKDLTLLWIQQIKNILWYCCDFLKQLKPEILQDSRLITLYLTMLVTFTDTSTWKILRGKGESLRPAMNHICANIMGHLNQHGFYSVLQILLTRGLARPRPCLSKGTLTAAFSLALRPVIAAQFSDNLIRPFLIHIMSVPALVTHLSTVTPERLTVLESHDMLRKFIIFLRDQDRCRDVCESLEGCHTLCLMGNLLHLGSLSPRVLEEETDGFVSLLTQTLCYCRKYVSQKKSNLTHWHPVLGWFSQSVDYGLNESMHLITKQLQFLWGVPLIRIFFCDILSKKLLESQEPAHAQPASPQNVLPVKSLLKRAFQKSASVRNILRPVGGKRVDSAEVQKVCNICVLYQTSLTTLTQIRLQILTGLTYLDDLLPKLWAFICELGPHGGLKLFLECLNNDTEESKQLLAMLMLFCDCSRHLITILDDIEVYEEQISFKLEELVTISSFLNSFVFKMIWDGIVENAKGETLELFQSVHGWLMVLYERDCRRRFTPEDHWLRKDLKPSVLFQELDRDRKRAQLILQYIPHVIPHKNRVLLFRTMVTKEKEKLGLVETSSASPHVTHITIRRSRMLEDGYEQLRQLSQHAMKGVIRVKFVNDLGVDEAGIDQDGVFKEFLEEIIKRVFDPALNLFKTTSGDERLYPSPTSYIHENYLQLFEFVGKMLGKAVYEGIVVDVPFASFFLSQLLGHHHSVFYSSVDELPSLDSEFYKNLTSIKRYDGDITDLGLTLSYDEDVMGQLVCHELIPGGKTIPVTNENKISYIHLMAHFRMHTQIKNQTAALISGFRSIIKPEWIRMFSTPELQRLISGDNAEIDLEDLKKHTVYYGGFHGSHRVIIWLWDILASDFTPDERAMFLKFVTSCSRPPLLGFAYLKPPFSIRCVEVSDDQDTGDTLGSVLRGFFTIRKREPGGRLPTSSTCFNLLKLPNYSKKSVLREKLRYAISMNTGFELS
UniProt P51965: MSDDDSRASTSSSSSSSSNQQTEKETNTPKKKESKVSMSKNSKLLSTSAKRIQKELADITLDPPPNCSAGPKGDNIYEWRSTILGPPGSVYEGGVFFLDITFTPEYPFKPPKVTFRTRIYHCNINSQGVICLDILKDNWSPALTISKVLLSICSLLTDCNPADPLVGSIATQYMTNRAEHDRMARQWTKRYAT
UniProt Q16763: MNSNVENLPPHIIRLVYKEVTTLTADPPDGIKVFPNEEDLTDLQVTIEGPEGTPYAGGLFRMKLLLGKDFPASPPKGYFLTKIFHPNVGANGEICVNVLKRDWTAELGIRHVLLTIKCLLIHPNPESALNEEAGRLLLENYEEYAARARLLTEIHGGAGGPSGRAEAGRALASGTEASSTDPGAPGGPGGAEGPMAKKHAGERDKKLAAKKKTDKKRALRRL
UniProt Q14157: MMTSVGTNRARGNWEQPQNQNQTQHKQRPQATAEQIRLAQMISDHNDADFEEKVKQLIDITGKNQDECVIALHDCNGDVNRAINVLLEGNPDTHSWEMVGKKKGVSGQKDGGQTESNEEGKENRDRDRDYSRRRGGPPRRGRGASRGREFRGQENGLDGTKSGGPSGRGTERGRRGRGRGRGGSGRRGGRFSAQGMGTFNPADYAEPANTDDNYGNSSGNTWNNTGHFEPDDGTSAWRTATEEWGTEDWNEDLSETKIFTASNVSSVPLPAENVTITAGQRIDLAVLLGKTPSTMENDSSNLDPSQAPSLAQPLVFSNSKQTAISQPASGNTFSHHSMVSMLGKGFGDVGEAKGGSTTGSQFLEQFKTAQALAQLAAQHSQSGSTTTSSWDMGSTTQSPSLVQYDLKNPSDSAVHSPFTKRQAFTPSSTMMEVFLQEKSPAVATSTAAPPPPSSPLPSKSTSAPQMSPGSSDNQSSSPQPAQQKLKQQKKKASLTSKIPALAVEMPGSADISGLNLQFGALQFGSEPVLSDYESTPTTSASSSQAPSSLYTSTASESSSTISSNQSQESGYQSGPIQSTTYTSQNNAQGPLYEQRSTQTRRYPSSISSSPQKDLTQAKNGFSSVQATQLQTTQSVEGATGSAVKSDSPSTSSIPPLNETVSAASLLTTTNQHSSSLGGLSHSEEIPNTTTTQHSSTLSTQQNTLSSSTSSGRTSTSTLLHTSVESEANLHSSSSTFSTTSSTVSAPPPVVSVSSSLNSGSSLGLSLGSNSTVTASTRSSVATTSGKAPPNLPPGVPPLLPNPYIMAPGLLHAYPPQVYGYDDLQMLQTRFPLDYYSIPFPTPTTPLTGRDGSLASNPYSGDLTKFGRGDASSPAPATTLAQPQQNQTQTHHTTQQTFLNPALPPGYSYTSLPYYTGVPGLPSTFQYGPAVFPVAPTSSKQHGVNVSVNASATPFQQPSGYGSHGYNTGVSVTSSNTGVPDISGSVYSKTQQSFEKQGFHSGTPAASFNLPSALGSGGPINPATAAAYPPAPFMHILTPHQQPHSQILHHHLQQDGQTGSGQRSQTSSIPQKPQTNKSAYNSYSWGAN
UniProt Q7Z7E8: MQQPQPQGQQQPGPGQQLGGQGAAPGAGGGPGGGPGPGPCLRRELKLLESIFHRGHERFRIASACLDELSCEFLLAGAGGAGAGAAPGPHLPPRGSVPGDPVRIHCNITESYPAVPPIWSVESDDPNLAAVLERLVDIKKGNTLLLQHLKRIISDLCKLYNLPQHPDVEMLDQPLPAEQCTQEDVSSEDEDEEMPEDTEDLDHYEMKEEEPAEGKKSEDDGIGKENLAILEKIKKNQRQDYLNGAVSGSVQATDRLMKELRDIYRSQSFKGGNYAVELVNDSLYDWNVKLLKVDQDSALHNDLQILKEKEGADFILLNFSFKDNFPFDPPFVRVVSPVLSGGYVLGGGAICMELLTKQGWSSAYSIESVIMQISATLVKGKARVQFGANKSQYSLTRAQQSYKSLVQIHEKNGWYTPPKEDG

crizotinib = compound: C[C@@H](Oc1cc(-c2cnn(C3CCNCC3)c2)cnc1N)c1c(Cl)ccc(F)c1Cl [crizotinib]
Procedure, shortened: as §1

[2] = compound: C[C@@H]1COCCN1C2=NC(=NC(=C2)C3(CC3)S(=O)(=O)C)C4=C5C=CNC5=CC=C4
Procedure, shortened: as §1

[3] = compound: C[C@H](C1=CC=C(C=C1)C(=O)NC2=C3C=CNC3=NC=C2)N
Procedure, shortened: as §1

gandotinib = compound: Cc1cc(Nc2cc(CN3CCOCC3)c3nc(C)c(Cc4ccc(Cl)cc4F)n3n2)n[nH]1 [gandotinib]
Procedure, shortened: as §1

[4] = compound: Cc1cc(SCc2sc(-c3ccc(C(F)(F)F)cc3)nc2C)ccc1OCC(=O)O
Procedure, shortened: as §1

doramapimod = compound: Cc1ccc(-n2nc(C(C)(C)C)cc2NC(=O)Nc2ccc(OCCN3CCOCC3)c3ccccc23)cc1 [doramapimod]
Procedure, shortened: as §1

ispinesib = compound: Cc1ccc(C(=O)N(CCCN)[C@@H](c2nc3cc(Cl)ccc3c(=O)n2Cc2ccccc2)C(C)C)cc1 [ispinesib]
Procedure, shortened: as §1

duvelisib = compound: C[C@H](Nc1ncnc2nc[nH]c12)c1cc2cccc(Cl)c2c(=O)n1-c1ccccc1 [duvelisib]
Procedure, shortened: as §1

tozasertib = compound: Cc1cc(Nc2cc(N3CCN(C)CC3)nc(Sc3ccc(NC(=O)C4CC4)cc3)n2)n[nH]1 [tozasertib]
Procedure, shortened: as §1

Measured: log2 fold change

TTC38 (UniProt Q5R3I4)
inactive: [1] -0.055 | crizotinib -0.085 | [2] -0.085 | [3] -0.073 | gandotinib -0.031 | [4] 0.063 | ispinesib 0.06
active: doramapimod 0.73

TXNL1 (UniProt O43396)
inactive: [1] 0.027 | crizotinib 0.067 | [2] -0.01 | [3] -0.028 | gandotinib -0.076 | [4] 0.068 | doramapimod -0.049 | ispinesib 0.07

U2AF1 isoform 2 (UniProt Q01081)
inactive: [1] -0.046 | crizotinib 0.067 | [2] 0.03 | [3] -0.134 | gandotinib -0.005 | [4] 0.114 | doramapimod -0.143 | ispinesib 0

TUBB6 (UniProt K7ES63)
inactive: [1] -0.092 | crizotinib -0.032 | [2] -0.017 | [3] 0.183 | duvelisib 0.035 | tozasertib -0.203 | [4] -0.074 | doramapimod 0.19 | ispinesib -0.032

TXN2 (UniProt Q99757)
inactive: [1] -0.001 | crizotinib 0.128 | [2] -0.047 | gandotinib 0.105 | [4] -0.026 | doramapimod -0.034 | ispinesib 0.028
active: [3] -0.317

UBE2E3 (UniProt Q969T4)
inactive: [1] 0.008 | crizotinib 0 | [2] 0.219 | [3] 0.008 | gandotinib -0.052 | [4] 0.034 | doramapimod 0.03 | ispinesib -0.005

TUT4 (UniProt Q5TAX3)
inactive: [1] 0.069 | crizotinib 0.075 | [2] -0.286 | [3] 0.095 | gandotinib 0.024 | [4] 0.195 | doramapimod -0.003 | ispinesib -0.124

TUT7 (UniProt Q5VYS8)
inactive: [1] 0.059 | crizotinib -0.063 | [2] -0.5 | [3] 0.178 | gandotinib 0.182 | tozasertib 0.251 | doramapimod 0.06

UBC (UniProt P0CG48)
inactive: [1] -0.003 | crizotinib 0.208 | [2] 0.05 | [3] 0.064 | gandotinib 0.014 | [4] -0.009 | doramapimod 0.035 | ispinesib 0.091

TSG101 (UniProt Q99816)
inactive: [1] 0.035 | crizotinib -0.094 | [2] 0.082 | [3] -0.054 | gandotinib -0.024 | [4] 0.018 | doramapimod 0.009 | ispinesib -0.037

Random excerpt: two records from the list.
TXNL1 (UniProt O43396)
inactive: [1] 0.027 | crizotinib 0.067 | [2] -0.01 | [3] -0.028 | gandotinib -0.076 | [4] 0.068 | doramapimod -0.049 | ispinesib 0.07

TUT7 (UniProt Q5VYS8)
inactive: [1] 0.059 | crizotinib -0.063 | [2] -0.5 | [3] 0.178 | gandotinib 0.182 | tozasertib 0.251 | doramapimod 0.06

(continued)

UBE3B (UniProt Q7Z3V4)
inactive: [1] 0.106 | crizotinib -0.133 | [2] 0.254 | [3] -0.108 | [4] 0.021 | doramapimod -0.055 | ispinesib 0.178

UBE2E1 (UniProt P51965)
inactive: [1] -0.09 | crizotinib -0.144 | [2] 0.139 | duvelisib 0.033 | gandotinib -0.062 | tozasertib 0.026 | [4] 0.109 | doramapimod 0.022 | ispinesib -0.097

UBE2S (UniProt Q16763)
inactive: [1] 0.014 | crizotinib 0.079 | [2] 0.003 | [3] -0.067 | gandotinib -0.015 | [4] 0.002 | doramapimod 0.024 | ispinesib 0.1

UBA6
inactive: [1] 0.05 | crizotinib 0.024 | [2] 0.047 | [3] -0.017 | gandotinib -0.039 | [4] 0.078 | doramapimod -0.038 | ispinesib 0.014

UBAP2L isoform 1 (UniProt Q14157)
inactive: [1] -0.034 | crizotinib 0.077 | [2] 0.009 | [3] -0.008 | gandotinib -0.007 | [4] -0.056 | doramapimod 0.034 | ispinesib -0.026

UBE2Q1 (UniProt Q7Z7E8)
inactive: [1] 0 | crizotinib -0.061 | [2] 0.092 | [3] 0.004 | gandotinib -0.196 | [4] 0.07 | doramapimod 0.029 | ispinesib -0.001
